Results taken from PMC5709663.
Results are given in words; binding and its absence hold for the method and conditions named. Binding seen in cells or lysates may run through a third protein. Some entries that bind do so weakly or less than the wild type.

The chains behind the UniProt entries cited, without tags or fusion partners.
UniProt P03372: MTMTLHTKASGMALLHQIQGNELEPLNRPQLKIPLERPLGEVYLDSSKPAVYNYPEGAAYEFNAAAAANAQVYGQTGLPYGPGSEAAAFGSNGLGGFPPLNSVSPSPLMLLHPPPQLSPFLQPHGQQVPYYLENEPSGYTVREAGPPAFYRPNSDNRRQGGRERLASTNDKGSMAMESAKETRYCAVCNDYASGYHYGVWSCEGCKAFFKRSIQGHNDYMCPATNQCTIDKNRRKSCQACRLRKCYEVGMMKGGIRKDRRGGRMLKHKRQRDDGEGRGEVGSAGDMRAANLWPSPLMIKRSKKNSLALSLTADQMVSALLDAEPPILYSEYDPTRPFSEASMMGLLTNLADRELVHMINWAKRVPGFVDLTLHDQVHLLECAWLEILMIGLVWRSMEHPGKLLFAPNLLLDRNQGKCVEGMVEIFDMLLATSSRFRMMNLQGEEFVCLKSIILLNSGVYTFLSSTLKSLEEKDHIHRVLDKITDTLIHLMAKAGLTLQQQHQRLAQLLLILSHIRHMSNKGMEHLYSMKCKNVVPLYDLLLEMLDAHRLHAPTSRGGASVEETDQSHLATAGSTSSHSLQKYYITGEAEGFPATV

T1: TFIIB-related factor 1 (Brf1) (human (endogenous in MCF-7)) (UniProt Q92994)
T1 sequence: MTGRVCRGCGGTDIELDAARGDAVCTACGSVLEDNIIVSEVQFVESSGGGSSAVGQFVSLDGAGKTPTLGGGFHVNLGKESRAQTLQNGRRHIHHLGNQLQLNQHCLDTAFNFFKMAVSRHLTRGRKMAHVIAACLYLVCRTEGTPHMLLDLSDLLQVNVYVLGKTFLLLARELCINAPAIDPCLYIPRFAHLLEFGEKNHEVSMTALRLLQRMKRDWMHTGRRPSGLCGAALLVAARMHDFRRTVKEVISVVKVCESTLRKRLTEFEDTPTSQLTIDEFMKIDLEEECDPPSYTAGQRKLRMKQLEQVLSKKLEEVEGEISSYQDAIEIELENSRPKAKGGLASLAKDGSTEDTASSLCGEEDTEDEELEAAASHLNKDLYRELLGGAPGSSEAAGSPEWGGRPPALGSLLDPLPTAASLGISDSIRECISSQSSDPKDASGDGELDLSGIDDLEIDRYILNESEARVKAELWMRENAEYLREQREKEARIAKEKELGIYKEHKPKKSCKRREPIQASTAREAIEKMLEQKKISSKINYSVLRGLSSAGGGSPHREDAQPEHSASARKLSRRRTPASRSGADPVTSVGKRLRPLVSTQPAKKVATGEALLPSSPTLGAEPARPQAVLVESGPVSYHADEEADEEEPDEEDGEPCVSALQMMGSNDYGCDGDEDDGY


Legend:
[1] = target: T1, TFIIB-related factor 1 (Brf1) (human (endogenous in MCF-7)); assay: co-IP; endogenous proteins; lysates of MCF-7 cells treated with ethanol; immunoprecipitation with Brf1 or ERα antibody, detection by Western blot
[2] = target: estrogen receptor alpha (ERα) (human (endogenous in MCF-7)) (UniProt P03372); assay: as above

Molecule | binding [1] | binding [2]
estrogen receptor alpha (ERα) (from UniProt P03372 1-595) | binds | 
TFIIB-related factor 1 (Brf1) (protein, UniProt Q92994 1-677) MTGRVCRGCGGTDIELDAARGDAVCTACGSVLEDNIIVSEVQFVESSGGGSSAVGQFVSLDGAGKTPTLGGGFHVNLGKESRAQTLQNGRRHIHHLGNQLQLNQHCLDTAFNFFKMAVSRHLTRGRKMAHVIAACLYLVCRTEGTPHMLLDLSDLLQVNVYVLGKTFLLLARELCINAPAIDPCLYIPRFAHLLEFGEKNHEVSMTALRLLQRMKRDWMHTGRRPSGLCGAALLVAARMHDFRRTVKEVISVVKVCESTLRKRLTEFEDTPTSQLTIDEFMKIDLEEECDPPSYTAGQRKLRMKQLEQVLSKKLEEVEGEISSYQDAIEIELENSRPKAKGGLASLAKDGSTEDTASSLCGEEDTEDEELEAAASHLNKDLYRELLGGAPGSSEAAGSPEWGGRPPALGSLLDPLPTAASLGISDSIRECISSQSSDPKDASGDGELDLSGIDDLEIDRYILNESEARVKAELWMRENAEYLREQREKEARIAKEKELGIYKEHKPKKSCKRREPIQASTAREAIEKMLEQKKISSKINYSVLRGLSSAGGGSPHREDAQPEHSASARKLSRRRTPASRSGADPVTSVGKRLRPLVSTQPAKKVATGEALLPSSPTLGAEPARPQAVLVESGPVSYHADEEADEEEPDEEDGEPCVSALQMMGSNDYGCDGDEDDGY |  | binds
